Data: the supplement of paper PMC4604168 (melanoma cell lines)
This is one part of the list. Repeats are few or missing, and single values can be far off.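 Imaging used 1,536-well plates; nuclei positive for cleaved PARP by antibody were divided by total DNA-stained nuclei to yield the apoptosis fraction. Doses for screening kept most cells viable, and cell lines differ markedly in resting and induced cleaved-PARP levels.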

What follows are compounds tested on SkMel5 (assay: cleaved PARP positive nuclei fraction relative to DMSO control; melanoma cells; higher = more apoptosis). Conditions: library dose: low library concentration; 72 h.

Structure (SMILES)	cleaved PARP positive nuclei fraction [%]
Nc1cccc2c1CN(C1CCC(=O)NC1=O)C2=O (stereo not drawn) [lenalidomide] + COc1cc(Nc2ncc(F)c(Nc3ccc4c(n3)NC(=O)C(C)(C)O4)n2)cc(OC)c1OC [Tamatinib] (first compound 1 µM, partner dose 0.4 µM)	15.7
C[C@]1(c2nc3c(C(N)=O)cccc3[nH]2)CCCN1 [Veliparib] + CC(C)(C)c1cnc(CSc2cnc(NC(=O)C3CCNCC3)s2)o1 [SNS-032] (first compound 1.4 µM, partner dose 0.01 µM)	187
CC1(C)NC(=O)N(c2ccc([N+](=O)[O-])c(C(F)(F)F)c2)C1=O [nilutamide] + O=C(Nc1cccc(Cl)c1)Nc1ncc(CCNc2ncnc3ccsc23)s1 [SNS314] (first compound 1 µM, partner dose 0.0008 µM)	68.3
Cn1nnc2c(C(N)=O)ncn2c1=O [temozolomide] + C[C@@H]1CCN(C(=O)CC#N)C[C@@H]1N(C)c1ncnc2[nH]ccc12 [CP690550] (first compound 2 µM, partner dose 1 µM)	61.8
Clc1ccc(Nc2nnc(Cc3ccncc3)c3ccccc23)cc1 [vatalanib] + C=CCn1c(=O)c2cnc(Nc3ccc(N4CCN(C)CC4)cc3)nc2n1-c1cccc(C(C)(C)O)n1 [MK1775] (first compound 2 µM, partner dose 0.02 µM)	254
CC(C)(C)c1cnc(CSc2cnc(NC(=O)C3CCNCC3)s2)o1 + Cc1cc(N2CCOCC2)cc2[nH]c(-c3c(NC[C@@H](O)c4cccc(Cl)c4)cc[nH]c3=O)nc12 [BMS536924] (first compound 0.01 µM, partner dose 0.2 µM)	67.7
OCc1c[nH]c2ccccc12 [Indole-3-carbinol] + O=S(=O)(c1ccccc1)N(CC(F)(F)F)c1ccc(C(O)(C(F)(F)F)C(F)(F)F)cc1 [T0901317] (first compound 0.8 µM, partner dose 1.4 µM)	72.5
C=CCNC1=C2C[C@@H](C)C[C@H](OC)[C@H](O)[C@@H](C)/C=C(\C)[C@H](OC(N)=O)[C@@H](OC)/C=C\C=C(/C)C(=O)NC(=CC1=O)C2=O [Tanespimycin] + CC(C)CCN1c2nc(Nc3cc(F)c(O)c(F)c3)ncc2N(C)C(=O)C1C [BID1870] (first compound 0.002 µM, partner dose 0.2 µM)	82
